No constants are given. Whether binding was seen depends on the method and setting. In cells and extracts the contact can be indirect. Binding can be weak; no strength is given.
Biological target: T1, arginase 1 (human (endogenous in granulocytes of sepsis patients)) (UniProt P05089)
T1 sequence: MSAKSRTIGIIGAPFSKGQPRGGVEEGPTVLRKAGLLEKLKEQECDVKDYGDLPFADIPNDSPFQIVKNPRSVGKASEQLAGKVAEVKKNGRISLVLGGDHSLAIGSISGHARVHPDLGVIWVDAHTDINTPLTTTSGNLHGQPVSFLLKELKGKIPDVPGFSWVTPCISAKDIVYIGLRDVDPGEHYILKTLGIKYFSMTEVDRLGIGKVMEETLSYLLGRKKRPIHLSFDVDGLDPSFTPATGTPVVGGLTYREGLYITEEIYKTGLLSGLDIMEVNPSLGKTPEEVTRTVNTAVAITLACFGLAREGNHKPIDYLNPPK
Assay: co-IP; protein extracts of granulocytes isolated from sepsis patients (cell lysis buffer with protease inhibitors); antibodies specific to MMP8, MMP9, ARG1 and CXCL8 used to pull down the respective proteins; immunoprecipitates analysed by Western blot

binding: binds
Substance: C–X–C motif chemokine ligand 8

— article PMC11575963
